Results reported in patent US20110077212A1, “THERAPEUTIC USES OF SGLT2 INHIBITORS” (Theracos, Inc., priority 2009, published 2011).

Assay: Daily food consumption over the 7 days
Type: in vivo, Sprague-Dawley rats
Details: pioglitazone 0.03% diet, not significantly different from vehicle
Method: On day 1, rats were weighed and then received an ad mixed diet (ad lib) containing 0.03% pioglitazone in place of standard chow. Food weight was recorded in order to track consumption over the course of the experiment. At this time, rats were also given drinking water containing compound at the appropriate concentration. Full bottles were pre-weighed and recorded in order to track consumption over the course of the experiment. On day 7, rats, food and water bottles were again weighed and recorded, hematocrits were determined using blood collected by a tail nick. The daily dose of pioglitazone received by each rat was calculated from the total food consumption and the animal's average body weight. Daily dose of TEST COMPOUND or amiloride received by each rat was calculated from the total water consumption and the animal's average body weight.

Compound | Daily food consumption (in words)
N=C(N)NC(=O)c1nc(Cl)c(N)nc1N [Amiloride, Amiloride HCl Hydrate, reference compound] | slightly lower consumption
OC[C@H]1O[C@@H](c2ccc(Cl)c(Cc3ccc(OCCOC4CC4)cc3)c2)[C@H](O)[C@@H](O)[C@@H]1O [TEST COMPOUND, (2S,3R,4R,5S,6R)-2-(4-chloro-3-(4-(2-cyclopropoxyethoxy)benzyl)phenyl)-6-(hydroxymethyl)tetrahydro-2H-pyran-3,4,5-triol] | slightly higher consumption

Where a name gives a salt, the structure may show the parent alone.
